Reference: patent publication US20110097409A1, “PARTICLES COMPRISING A SALT OF 8-HYDROXY-2-[[(1R)-2-(4-METHOXYPHENYL)-1-METHYLETHYL]AMINO]ETHYL]-2(1H)-QUINOLINONE HAVING IMPROVED ADHESION PROPERTIES FOR POWDER FORMULATIONS FOR INHALATION” (Chiesi Farmaceutici S.p.A., priority 2008, published 2011)
For at least one compound, name, drawing or mass did not settle the structure.

Assay: Force and work of adhesion by atomic force microscopy (colloid probe)
Format: physicochemical
Settings: against smooth lactose carrier; mean ± S.D.
Description: The force of adhesion of the batches of powder particles obtained in Example 1 has been determined according to the procedure reported hereafter in comparison to those to those of micronised carmoterol hydrochloride and budesonide raw materials (r.m.) obtained by a conventional milling process.
As a substrate, alpha-lactose particles with a smooth surface having the characteristics reported in EP 1 196 146 and obtained as therein described are used.
An Atomic Force Microscope (AFM) as a scanning probe microscope is used to image lactose surface on an nm or even sub-nm level and to measure surface forces between the powder particles of the invention and particles of smoothed lactose.
A way to get information on the surface forces which are acting in a system and to illustrate the functioning of an AFM, is to use the “Force-Mode”. This is done by moving the tip towards and away from the surface. Recording photodetector signal as a function of z-piezo elongation yields a curve which can be interpreted as a force-vs.-distance-curve. In this work, this technique has been employed to measure the drug-carrier adhesion force modifying the original cantilever. […]
The force of adhesion (the apex of the adhesion peak) and the work of adhesion (integrated area of the adhesion peak) is calculated for each graph. […]

CCCC1O[C@@H]2C[C@H]3[C@@H]4CCC5=CC(=O)C=C[C@]5(C)[C@H]4[C@@H](O)C[C@]3(C)[C@]2(C(=O)CO)O1 (some centres unmarked) [Budesonide r.m, budesonide]
Force of adhesion Fmax: 57.40 ± 6.56 nN
Work of adhesion Wad: 4266.79 ± 430.78 µJ
